Measured values from patent US20250064853A1 (GYALA THERAPEUTICS SOCIEDAD LIMITADA, published 2025).
No constants are given. Whether binding was seen depends on the method and setting. Some results given as binding are weak or reduced against the parent protein; the word gives no strength. Blank lines part the entries; values can stand above or below the binder they belong to.

Legend:
[1] = target: T1, Human CD84 produced by mammalian cells (CD84 antigen) (human) (UniProt Q9UIB8); assay: phage display screening on CD84 antigen
T1 sequence: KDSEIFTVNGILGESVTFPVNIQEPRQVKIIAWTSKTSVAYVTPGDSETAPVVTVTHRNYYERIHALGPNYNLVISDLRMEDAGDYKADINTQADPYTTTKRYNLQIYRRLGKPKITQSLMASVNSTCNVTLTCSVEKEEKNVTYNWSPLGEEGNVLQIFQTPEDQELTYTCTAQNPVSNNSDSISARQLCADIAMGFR

[2] = target: T1, Human CD84 produced by mammalian cells (CD84 antigen) (human); assay: monoclonal phage ELISA on coated CD84 antigen

binding [1]: binds
binding [2]: binds
B1: R3-H3 (scFv)
scFv: EVQLVESGGGLVQPGGSLRLSCAASGFTFSDNAMSWVRQAPGKGLEWVSAISGTGRTTYYADSVKGRFTISRDNSKNTLYLQMNSLRAEDTAVYYCAKWDCSDGRCYWAYWGQGTLVTVSSGGGGSGGGGSGGGGSGGGGASEIVLTQSPLSLPVTLGQPASISCRSSQSLVYSDGDTYLNWFQQRPGQSPRRLIYKVSNRDSGVPDRFSGSGSGTDFTLKISRVEAEDVGVYYCMQGTHWPPNTFGQGTRLEIK

binding [1]: binds
binding [2]: binds
B2: R3-G7 (scFv)
scFv: QVQLVESGGGVVQPGRSLRLSCTASGFTFSSYPMHWVRQAPGKGLEWVAAISYHGRNKFYADSVKGRFTISRDDLRSTLYLQMNNLKADDTAVYSCARDRDATPGGTGVGNHGMAVWGQGTTVTVSSGGGGSGGGGSGGGGSGGGGASEIVLTQSPLSLPVTPGEPASISCKSSQSLLHSSGYNYLDWYLQKPGQSPQLLIHMGSNRASGVPARFSGSGSGTDFTLRISRVEAEDVGVYYCMQGLQTPPTFGGGTKLEIK
